Our source for the binding values is publication PMC5707103.

Chains of the proteins cited; added tags and fusions are not shown. Lines headed by an entry give the natural chain unless they say otherwise; changes in a name come on top.
UniProt P03126: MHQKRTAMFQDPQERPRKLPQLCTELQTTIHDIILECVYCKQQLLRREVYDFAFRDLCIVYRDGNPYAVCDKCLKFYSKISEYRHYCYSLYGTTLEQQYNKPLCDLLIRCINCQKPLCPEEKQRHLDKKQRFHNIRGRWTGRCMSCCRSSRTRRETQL
UniProt P01106: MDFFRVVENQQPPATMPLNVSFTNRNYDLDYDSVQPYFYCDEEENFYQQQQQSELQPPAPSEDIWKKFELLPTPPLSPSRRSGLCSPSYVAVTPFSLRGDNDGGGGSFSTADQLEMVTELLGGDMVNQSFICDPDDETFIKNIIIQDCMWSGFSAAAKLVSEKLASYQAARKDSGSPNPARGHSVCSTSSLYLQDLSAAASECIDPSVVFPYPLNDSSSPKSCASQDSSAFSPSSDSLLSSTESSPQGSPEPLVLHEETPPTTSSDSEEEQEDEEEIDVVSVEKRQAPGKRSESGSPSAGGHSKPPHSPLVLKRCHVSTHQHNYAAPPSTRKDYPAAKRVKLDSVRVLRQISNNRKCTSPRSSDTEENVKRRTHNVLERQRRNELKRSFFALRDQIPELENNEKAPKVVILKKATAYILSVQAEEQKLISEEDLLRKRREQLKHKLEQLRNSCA

These are yes or no findings as the source states them, for the method shown. In cells and extracts the contact can be indirect. A result given as binding can be weak or reduced; the word gives no strength.

The experiment has as its target GST-E6 fusion protein (GST-16E6) (human papillomavirus type 16 (HPV16)) (UniProt P03126). In words: pull-down; GST or GST-E6 fusion on Glutathione-Agarose beads; in vitro translated wt Myc or full-length based deletion mutants; blot with monoclonal Myc antibody 9E10; only the target purified.
On to “MycΔ370-409 (MycΔHLH) (from UniProt P01106)”, for which the binding result was “binds”.

Take MycΔMBI (from UniProt P01106): the binding entry is reported as “binds”. Then MycΔMBI+II (from UniProt P01106), with “binds”; and MycΔMBI+ΔHLH (from UniProt P01106), with “binds”. As for MycΔMBII (from UniProt P01106), the binding entry was “binds”. On to MycΔMBII+ΔHLH (from UniProt P01106), for which the binding entry is listed as “binds”.
